Screen size: about 350,000 compounds; about 6,000 (1.7%) were called active. The inconclusive results got no clear call from the source; some entries with a clear call stand among them for comparison. Cut-off read from the data, not from the text of the source: active = CPE inhibition above about 20% (passing the limit was not always enough); inconclusive = no clear call, values can overlap the other calls; tested in BHK-21 cells. Where a structure was tested more than once in an assay, its records may differ in their call.
Assay: protection of cells from dengue 2 killing – plate reader, single concentration, primary screen (AID 651640);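 note: 0% = median of neutral control wells and 100% = median of positive control wells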
Conditions: DENV2-infected cells, cytopathic effect rescue, at 9.99 µM, hits give high values
With `CCc1nn2c(=O)c(S(=O)(=O)Nc3ccc(Cl)cc3)c(C)nc2s1` the CPE inhibition was inconclusive: 29%.
For `OC[C@H]1O[C@@H](Oc2ccc3cc(Br)ccc3c2)[C@H](O)[C@@H](O)[C@H]1O`, the CPE inhibition was inconclusive: 64.8%.
With `COc1cc2c(cc1OC)CN(C(=O)CCOc1ccccc1C)CC2` the CPE inhibition was active: 44.1%.
For `C[C@@H]1CCCCO[C@@H](CN(C)S(=O)(=O)c2ccc(F)cc2)[C@H](C)CN([C@@H](C)CO)C(=O)c2cc(NC(=O)Cc3ccccc3)ccc2O1`, the CPE inhibition was inconclusive: 32.7%.
With `O=C(CC(=O)c1cccc([N+](=O)[O-])c1)Nc1ccccc1Cl` the CPE inhibition was inactive: 7.08%.
For `OC1(c2ccc(Cl)cc2)CCN(Cc2nc(-c3cnccn3)no2)CC1`, the CPE inhibition was inconclusive: 49.9%.
With `CCCNC(=O)N1C[C@@H](O)COC[C@H]2O[C@H](CC(=O)NCc3ccc(Cl)c(Cl)c3)CC[C@@H]21` the CPE inhibition was inconclusive: 31.3%.
For `COc1ccc(CNC(=O)C[C@H]2C(=O)N(Cc3ccccc3)C[C@@H]2Cc2ccccc2)cc1`, the CPE inhibition was active: 30.2%.
For `O=C(NCC[C@@H]1CC[C@@H](NS(=O)(=O)c2ccc(Cl)cc2)[C@@H](CO)O1)Nc1ccc(F)cc1`, the CPE inhibition was active: 33.3%.
In the case of `CN(C(=O)c1ccc(NC(=O)Cc2cccc(NC(=O)C3CCN(C(=O)C4CC4)CC3)c2)cc1)C1CC1`, the CPE inhibition is reported as active: 34%.
In the case of `O=C1C(=Cc2cn(-c3ccccc3)nc2-c2ccc(OCc3ccccc3F)cc2)SC(=S)N1CCS(=O)(=O)O`, the CPE inhibition is reported as inactive: -15.1%.
For `CCc1cc(CNC(=O)C2CCC(=O)N(CCc3ccc(OC)cc3)C2)on1` (stereo unspecified), the CPE inhibition was inconclusive: 36%.
With `Cc1noc(C)c1NC(=O)N(C)C[C@@H]1OCCCC[C@H](C)Oc2ccc(NC(=O)Nc3ccc(C(F)(F)F)cc3)cc2C(=O)N([C@@H](C)CO)C[C@@H]1C` the CPE inhibition was active: 29.6%.
In the case of `O=C(NNS(=O)(=O)c1ccc(Cl)cc1)c1cc(-c2ccccc2)nc2ccccc12`, the CPE inhibition is reported as inactive: -1.31%.
For `O=C(C[C@@H]1CC[C@H]2[C@@H](COC[C@@H](O)CN2CCc2ccccc2)O1)NCc1ccccc1`, the CPE inhibition was inactive: 4.39%.
In the case of `C[C@H]1CCCCO[C@@H](CN(C)Cc2ccc(C(=O)O)cc2)[C@@H](C)CN([C@@H](C)CO)C(=O)c2cc(NS(=O)(=O)c3cn(C)cn3)ccc2O1`, the CPE inhibition is reported as inconclusive: 50.2%.
In the case of `Cc1cc(C(=O)Nc2ccc3c(c2)C(=O)N(C)[C@@H]2CC[C@@H](CC(=O)NCC(F)(F)F)O[C@H]2CO3)no1`, the CPE inhibition is reported as inconclusive: 26.3%.
With `CCc1ccc(OC2(C)CCN(Cc3ccc4c(c3)OCCO4)C2)cc1` (stereo unspecified) the CPE inhibition was inconclusive: 27.2%.
With `Cc1cccc(C(=O)NCC(=O)NCCCSc2ccccc2)c1` the CPE inhibition was inconclusive: 30.6%.
In the case of `COc1cc(C)c(C(=O)Oc2cc(C)c(C(=O)O)c(O)c2C)c(O)c1C`, the CPE inhibition is reported as inactive: -0.669%.
In the case of `CC1CCc2nc3ccc(S(=O)(=O)N4CCC(C(=O)NC5CCCC5)CC4)cc3c(C(=O)O)c2C1` (stereo unspecified), the CPE inhibition is reported as inconclusive: 27.2%.
For `C[C@@H]1CN([C@@H](C)CO)C(=O)Cc2cc(NC(=O)NC3CCCCC3)ccc2O[C@H]1CN(C)Cc1ccccc1`, the CPE inhibition was inactive: 1.82%.
In the case of `COc1ccc(S(=O)(=O)N[C@@H]2C=C[C@H](CC(=O)NCc3ccccc3F)O[C@@H]2CO)cc1`, the CPE inhibition is reported as inconclusive: 31%.
For `CCOC(=O)CSc1ccc2nnc(CCNS(=O)(=O)c3ccc(C)cc3)n2n1`, the CPE inhibition was inconclusive: 24.7%.
With `CCOc1ccccc1NC(=O)C1CCC(CNc2c(N3CCOCC3)c(=O)c2=O)CC1` (stereo unspecified) the CPE inhibition was inconclusive: 30.5%.
In the case of `Cc1cc(N2CCC(N(C)C3CCCC3)CC2)nc2cc(O)ccc12`, the CPE inhibition is reported as inconclusive: 40.2%.
For `CC(=O)Nc1c(F)c(F)c(F)c(F)c1F`, the CPE inhibition was inconclusive: 52.1%.
For `COc1ccccc1NC(=O)c1sc2ncn(CC(=O)Nc3ccccc3)c(=O)c2c1C`, the CPE inhibition was inconclusive: 25.2%.
With `CCCCCCCCN1[C@@H](CC(C)=O)c2cc(C(F)(F)F)ccc2S1(=O)=O` the CPE inhibition was inconclusive: 32.3%.
In the case of `CCCCC(=O)N1CCN(c2nc3ccc(Br)cc3s2)CC1`, the CPE inhibition is reported as inactive: 1.41%.
For `CN(C)C(=O)C[C@H]1CC[C@@H]2[C@@H](COc3ccc(NS(=O)(=O)c4cccc(F)c4)cc3C(=O)N2C)O1`, the CPE inhibition was inconclusive: 22.5%.
For `O=C(NC1CCCCC1)N1CC(=O)N2[C@H](CO)[C@H](c3ccc(-c4cccc(F)c4)cc3)[C@H]2C1`, the CPE inhibition was inconclusive: 26.8%.
With `COc1ccc(NC(=O)Nc2cccc3c2O[C@@H](CN(C)C(=O)Nc2ccccc2)[C@H](C)CN([C@H](C)CO)C3=O)cc1` the CPE inhibition was active: 36.5%.
In the case of `O=C(CSc1nccn(-c2ccc(F)c(Cl)c2)c1=O)NC1CCCC1`, the CPE inhibition is reported as active: 21.7%.
With `COc1ccccc1/C=C1\SC(=S)N(CCC(=O)Nc2cccc(O)c2)C1=O` the CPE inhibition was inactive: 5.13%.
With `C/C(=N\NC(=O)COc1cc(C)cc(C)c1)c1ccc(N2CCOCC2)cc1` the CPE inhibition was inconclusive: 32%.
For `CCNC(=O)[C@@H]1[C@@H](CO)[C@@H]2Cn3c(ccc(-c4ccccc4F)c3=O)[C@H]1N2C(=O)CC`, the CPE inhibition was inconclusive: 54.3%.
For `O[C@H]1C[C@H](c2ccc(Cl)cc2)N(CC2CCCCC2)C[C@@H]1n1cc(C2CC2)nn1`, the CPE inhibition was inconclusive: 59.9%.
With `Cc1ccccc1-c1ccc([C@@H]2[C@H](CO)N3CCCCN(C(=O)Nc4cccc(F)c4)C[C@@H]23)cc1` the CPE inhibition was active: 37.7%.
In the case of `CC(=O)n1cc([C@@H]2C=C(C(=O)O)O[C@H](OCc3ccc(CO)cc3)C2)c2ccccc21`, the CPE inhibition is reported as active: 28.5%.
For `CN1C(=O)CC(c2ccccc2)C1=O` (stereo unspecified), the CPE inhibition was inconclusive: 38%.
For `O=C(O)C[C@@H]1C[C@@H]2c3cc(NC(=O)c4ccc5c(c4)OCO5)ccc3O[C@@H]2[C@@H](CO)O1`, the CPE inhibition was inactive: -5.85%.
With `COc1ccccc1/C=C/C=N/NC(=O)c1cc(-c2ccco2)[nH]n1` the CPE inhibition was inconclusive: 23.4%.
For `CCCNC(=O)[C@H]1[C@H](CO)[C@H]2Cn3c(ccc(C4=CCCCC4)c3=O)[C@@H]1N2CCC`, the CPE inhibition was inconclusive: 32.1%.
With `CC(C)NC(=O)Nc1ccc2c(c1)C(=O)N([C@H](C)CO)C[C@H](C)[C@H](CN(C)CC1CC1)OCCCC[C@@H](C)O2` the CPE inhibition was active: 107%.
With `C[C@H](CO)N1C[C@H](C)[C@H](CN(C)S(=O)(=O)c2cn(C)cn2)OCc2cnnn2CCCC1=O` the CPE inhibition was inconclusive: 29.1%.
